{"source": "the supplement of paper PMC10077471", "note": "The full ranking holds about 1,900 compounds; the median of “excess over highest single agent (ExcessHSA) synergy score, 6x6 matrix” is about -83, and the lowest 2% start at about -370. This is one part of the list."}
{"tested_on": "NCI-H446", "assay": "excess over highest single agent (ExcessHSA) synergy score, 6x6 matrix; higher = less synergy (more negative = stronger synergy)", "conditions": "72 h; CellTiter-Glo viability"}
{"smiles": "CN(C)CCC(c1ccc(Cl)cc1)c1ccccn1", "note": "(configuration not stated) + Cc1sc2c(c1C)C(c1ccc(Cl)cc1)=N[C@@H](CC(=O)OC(C)(C)C)c1nnc(C)n1-2 [NCGC00250412-19]", "excess over highest single agent": -263}
{"smiles": "CCC(=O)NCC[C@@H]1CCc2ccc3c(c21)CCO3", "note": "+ Cc1sc2c(c1C)C(c1ccc(Cl)cc1)=N[C@@H](CC(=O)OC(C)(C)C)c1nnc(C)n1-2 [NCGC00250412-19]", "excess over highest single agent": 35.5}
{"smiles": "COc1ccc(-c2coc3cc(O)cc(O)c3c2=O)cc1", "note": "+ Cc1sc2c(c1C)C(c1ccc(Cl)cc1)=N[C@@H](CC(=O)OC(C)(C)C)c1nnc(C)n1-2 [NCGC00250412-19]", "excess over highest single agent": -134}
{"smiles": "C=CC(=O)N1CCc2ccc(-n3c(=O)ccc4cnc5ccc(-c6cnn(C)c6)cc5c43)cc21", "note": "+ Cc1sc2c(c1C)C(c1ccc(Cl)cc1)=N[C@@H](CC(=O)OC(C)(C)C)c1nnc(C)n1-2 [NCGC00250412-19]", "excess over highest single agent": -132}
{"smiles": "O=C(NC1CCNCC1)c1n[nH]cc1NC(=O)c1c(Cl)cccc1Cl", "note": "+ Cc1sc2c(c1C)C(c1ccc(Cl)cc1)=N[C@@H](CC(=O)OC(C)(C)C)c1nnc(C)n1-2 [NCGC00250412-19]", "excess over highest single agent": -145}
{"smiles": "CC(C)c1noc(N2CCC(COc3ccc(-c4ccc(S(C)(=O)=O)cc4)nc3)CC2)n1", "note": "+ Cc1sc2c(c1C)C(c1ccc(Cl)cc1)=N[C@@H](CC(=O)OC(C)(C)C)c1nnc(C)n1-2 [NCGC00250412-19]", "excess over highest single agent": 12.5}
{"smiles": "COc1ccc(CC2NCCc3cc(OC)c(OC)cc32)cc1OC", "note": "(configuration not stated) + Cc1sc2c(c1C)C(c1ccc(Cl)cc1)=N[C@@H](CC(=O)OC(C)(C)C)c1nnc(C)n1-2 [NCGC00250412-19]", "excess over highest single agent": -81.7}
{"smiles": "CCCCCCCCCCCCCC(=O)N[C@H](CO)[C@H](O)c1ccc([N+](=O)[O-])cc1", "note": "+ Cc1sc2c(c1C)C(c1ccc(Cl)cc1)=N[C@@H](CC(=O)OC(C)(C)C)c1nnc(C)n1-2 [NCGC00250412-19]", "excess over highest single agent": -104}
{"smiles": "COc1ccc(Nc2cc(-c3cnc(N)nc3)nc(N3CCOCC3)n2)cn1", "note": "+ Cc1sc2c(c1C)C(c1ccc(Cl)cc1)=N[C@@H](CC(=O)OC(C)(C)C)c1nnc(C)n1-2 [NCGC00250412-19]", "excess over highest single agent": 3.49}
{"smiles": "CC[C@H](Nc1ncnc2[nH]cnc12)c1nc2cccc(F)c2c(=O)n1-c1ccccc1", "note": "+ Cc1sc2c(c1C)C(c1ccc(Cl)cc1)=N[C@@H](CC(=O)OC(C)(C)C)c1nnc(C)n1-2 [NCGC00250412-19]", "excess over highest single agent": -121}
{"smiles": "CCCC(CCC)C(=O)O", "note": "+ Cc1sc2c(c1C)C(c1ccc(Cl)cc1)=N[C@@H](CC(=O)OC(C)(C)C)c1nnc(C)n1-2 [NCGC00250412-19]", "excess over highest single agent": 14.8}
{"smiles": "CN(C)CCCC1(c2ccc(F)cc2)OCc2cc(C#N)ccc21", "note": "(configuration not stated) + Cc1sc2c(c1C)C(c1ccc(Cl)cc1)=N[C@@H](CC(=O)OC(C)(C)C)c1nnc(C)n1-2 [NCGC00250412-19]", "excess over highest single agent": -117}
{"smiles": "CN(C)[C@@H](CCOc1cccc2ccccc12)c1ccccc1", "note": "+ Cc1sc2c(c1C)C(c1ccc(Cl)cc1)=N[C@@H](CC(=O)OC(C)(C)C)c1nnc(C)n1-2 [NCGC00250412-19]", "excess over highest single agent": -59.8}
{"smiles": "COC[C@@H](c1ccc(C(F)(F)F)cc1)N1CCN(C2(C)CCN(C(=O)c3c(C)ncnc3C)CC2)C[C@@H]1C", "note": "+ Cc1sc2c(c1C)C(c1ccc(Cl)cc1)=N[C@@H](CC(=O)OC(C)(C)C)c1nnc(C)n1-2 [NCGC00250412-19]", "excess over highest single agent": -160}
{"smiles": "Cc1onc(-c2ccccc2)c1C(=O)N[C@@H]1C(=O)N2[C@@H]1SC(C)(C)[C@@H]2C(=O)O", "note": "+ Cc1sc2c(c1C)C(c1ccc(Cl)cc1)=N[C@@H](CC(=O)OC(C)(C)C)c1nnc(C)n1-2 [NCGC00250412-19]", "excess over highest single agent": -4.12}
{"smiles": "CCCCCC[C@H]1C(=O)O[C@H](C)[C@H](NC(=O)c2cccc(NC=O)c2O)C(=O)O[C@@H](C)[C@@H]1OC(=O)CC(C)C", "note": "+ Cc1sc2c(c1C)C(c1ccc(Cl)cc1)=N[C@@H](CC(=O)OC(C)(C)C)c1nnc(C)n1-2 [NCGC00250412-19]", "excess over highest single agent": -39}
{"smiles": "C[C@H]1[C@@H](CC(C[C@H]2O[C@@H]3O[C@]4(C)CC[C@H]5[C@H](C)CC[C@@H]([C@H]2C)[C@@]35OO4)CS(=O)(=O)c2ccc(COC(=O)N(C)C)cc2)O[C@@H]2O[C@]3(C)CC[C@H]4[C@H](C)CC[C@@H]1[C@@]24OO3", "note": "(some centres not stated) + Cc1sc2c(c1C)C(c1ccc(Cl)cc1)=N[C@@H](CC(=O)OC(C)(C)C)c1nnc(C)n1-2 [NCGC00250412-19]", "excess over highest single agent": -299}
{"smiles": "CO[C@H]1C(=O)[C@]2(C)[C@@H](OC)C[C@H]3OC[C@@]3(OC(C)=O)[C@H]2[C@H](OC(=O)c2ccccc2)[C@]2(O)C[C@H](OC(=O)[C@H](O)[C@@H](NC(=O)OC(C)(C)C)c3ccccc3)C(C)=C1C2(C)C", "note": "+ Cc1sc2c(c1C)C(c1ccc(Cl)cc1)=N[C@@H](CC(=O)OC(C)(C)C)c1nnc(C)n1-2 [NCGC00250412-19]", "excess over highest single agent": -412}
{"smiles": "Cc1ccc(CN2CCNCC2)cc1NC(=O)CNc1ccc(F)c(F)c1", "note": "+ Cc1sc2c(c1C)C(c1ccc(Cl)cc1)=N[C@@H](CC(=O)OC(C)(C)C)c1nnc(C)n1-2 [NCGC00250412-19]", "excess over highest single agent": -10.7}
{"smiles": "O=S(=O)(O)CCSSCCS(=O)(=O)O", "note": "+ Cc1sc2c(c1C)C(c1ccc(Cl)cc1)=N[C@@H](CC(=O)OC(C)(C)C)c1nnc(C)n1-2 [NCGC00250412-19]", "excess over highest single agent": -56.3}
{"smiles": "Clc1ccccc1C(c1ccccc1)(c1ccccc1)n1ccnc1", "note": "+ Cc1sc2c(c1C)C(c1ccc(Cl)cc1)=N[C@@H](CC(=O)OC(C)(C)C)c1nnc(C)n1-2 [NCGC00250412-19]", "excess over highest single agent": -102}
{"smiles": "NC(=O)NO", "note": "+ Cc1sc2c(c1C)C(c1ccc(Cl)cc1)=N[C@@H](CC(=O)OC(C)(C)C)c1nnc(C)n1-2 [NCGC00250412-19]", "excess over highest single agent": -18.6}
{"smiles": "C[C@]12CC[C@@H]3c4ccc(O)cc4CC[C@H]3[C@@H]1[C@@H](O)[C@@H](O)[C@@H]2O", "note": "+ Cc1sc2c(c1C)C(c1ccc(Cl)cc1)=N[C@@H](CC(=O)OC(C)(C)C)c1nnc(C)n1-2 [NCGC00250412-19]", "excess over highest single agent": -91}
{"smiles": "Clc1ccc(COC(Cn2ccnc2)c2ccc(Cl)cc2Cl)cc1", "note": "(configuration not stated) + Cc1sc2c(c1C)C(c1ccc(Cl)cc1)=N[C@@H](CC(=O)OC(C)(C)C)c1nnc(C)n1-2 [NCGC00250412-19]", "excess over highest single agent": 81.4}
{"smiles": "CCc1cc(/C(C)=N/OCc2ccc(C3CCCCC3)c(C(F)(F)F)c2)ccc1CN1CC(C(=O)O)C1", "note": "+ Cc1sc2c(c1C)C(c1ccc(Cl)cc1)=N[C@@H](CC(=O)OC(C)(C)C)c1nnc(C)n1-2 [NCGC00250412-19]", "excess over highest single agent": -115}
{"smiles": "C[C@@H]1CC[C@@]2(OC1)OC1CC3C4CC=C5CC(O)CCC5(C)C4CCC3(C)C1[C@@H]2C", "note": "(some centres not stated) + Cc1sc2c(c1C)C(c1ccc(Cl)cc1)=N[C@@H](CC(=O)OC(C)(C)C)c1nnc(C)n1-2 [NCGC00250412-19]", "excess over highest single agent": -38}
{"smiles": "Cc1cc(CS(=O)(=O)c2ccccc2)cc(OCc2ccc(CN3CCC[C@@H]3CO)cc2)c1", "note": "+ Cc1sc2c(c1C)C(c1ccc(Cl)cc1)=N[C@@H](CC(=O)OC(C)(C)C)c1nnc(C)n1-2 [NCGC00250412-19]", "excess over highest single agent": -3.45}
{"smiles": "CCn1c(-c2nonc2N)nc2cnc(Oc3cccc(NC(=O)c4ccc(OCCN5CCOCC5)cc4)c3)cc21", "note": "+ Cc1sc2c(c1C)C(c1ccc(Cl)cc1)=N[C@@H](CC(=O)OC(C)(C)C)c1nnc(C)n1-2 [NCGC00250412-19]", "excess over highest single agent": -134}
{"smiles": "COc1cc2c(cc1OC)CN(CCc1ccc(NC(=O)c3cccc4c(=O)c5cccc(OC)c5[nH]c34)cc1)CC2", "note": "+ Cc1sc2c(c1C)C(c1ccc(Cl)cc1)=N[C@@H](CC(=O)OC(C)(C)C)c1nnc(C)n1-2 [NCGC00250412-19]", "excess over highest single agent": 86.7}
{"smiles": "O=P(O)(O)C(O)(Cc1cccnc1)P(=O)(O)O", "note": "+ Cc1sc2c(c1C)C(c1ccc(Cl)cc1)=N[C@@H](CC(=O)OC(C)(C)C)c1nnc(C)n1-2 [NCGC00250412-19]", "excess over highest single agent": -14.6}
{"smiles": "CC(=O)O[C@@]12CO[C@@H]1C[C@H](O)[C@@]1(C)C(=O)[C@H](O)C3=C(C)[C@@H](O)C[C@@](O)([C@@H](OC(=O)c4ccccc4)[C@H]21)C3(C)C", "note": "+ Cc1sc2c(c1C)C(c1ccc(Cl)cc1)=N[C@@H](CC(=O)OC(C)(C)C)c1nnc(C)n1-2 [NCGC00250412-19]", "excess over highest single agent": -157}
{"smiles": "Cc1c(O)cccc1C(=O)N[C@@H](CSc1ccccc1)[C@H](O)CN1C[C@H]2CCCC[C@H]2C[C@H]1C(=O)NC(C)(C)C", "note": "+ Cc1sc2c(c1C)C(c1ccc(Cl)cc1)=N[C@@H](CC(=O)OC(C)(C)C)c1nnc(C)n1-2 [NCGC00250412-19]", "excess over highest single agent": -25.1}
{"smiles": "Cc1nc(-c2ccc(-c3ccc(C(=O)N4CCc5cc6c(cc54)C4(CCN(C)CC4)CO6)cc3)c(C)c2)no1", "note": "+ Cc1sc2c(c1C)C(c1ccc(Cl)cc1)=N[C@@H](CC(=O)OC(C)(C)C)c1nnc(C)n1-2 [NCGC00250412-19]", "excess over highest single agent": -231}
{"smiles": "Cc1cccc(Nc2nc(-c3ccncc3)cs2)c1", "note": "+ Cc1sc2c(c1C)C(c1ccc(Cl)cc1)=N[C@@H](CC(=O)OC(C)(C)C)c1nnc(C)n1-2 [NCGC00250412-19]", "excess over highest single agent": -277}
{"smiles": "Nc1ccn([C@@H]2O[C@H](CO)[C@@H](O)[C@H]2O)c(=O)n1", "note": "+ Cc1sc2c(c1C)C(c1ccc(Cl)cc1)=N[C@@H](CC(=O)OC(C)(C)C)c1nnc(C)n1-2 [NCGC00250412-19]", "excess over highest single agent": -268}
{"smiles": "CC1CCN(c2cc(N3CCN(C)CC3)ccc2NC(=O)c2cc(C#N)c[nH]2)CC1", "note": "+ Cc1sc2c(c1C)C(c1ccc(Cl)cc1)=N[C@@H](CC(=O)OC(C)(C)C)c1nnc(C)n1-2 [NCGC00250412-19]", "excess over highest single agent": 106}
{"smiles": "CN(C)CCN1C(=O)c2cccc3cc(N)cc(c23)C1=O", "note": "+ Cc1sc2c(c1C)C(c1ccc(Cl)cc1)=N[C@@H](CC(=O)OC(C)(C)C)c1nnc(C)n1-2 [NCGC00250412-19]", "excess over highest single agent": -103}
